This note sets out measurements from paper PMC7143582, “Functional Characterization of Sex Pheromone Receptors in the Fall Armyworm (Spodoptera frugiperda)” (Insects, 2020).

The series has as its system T1, SfruOR13.
T1 construct: gene OR13; full-length ORF; with SfruORco
Description: two-electrode voltage clamp, Xenopus oocytes co-expressing SfruOR13/ORco, […] screening. The class given is cell-based, Spodoptera frugiperda.

Structures are written as SMILES. Some results come without the dose or concentration used.

On to `C/C=C/C/C=C\CCCCCCCCOC(C)=O` [Z9,E12-14:OAc, (Z, E)-9, 12-tetradecadienyl acetate], for which the “two-electrode voltage clamp, Xenopus oocytes co-expressing SfruOR13/ORco, 10^-4” value is given as 205 nA. Turning to `CC/C=C\CCCCCCCCOC(C)=O` [Z9-12:OAc], the “two-electrode voltage clamp, Xenopus oocytes co-expressing SfruOR13/ORco, 10^-4” value worked out at 106 nA.
